# Results as given in PMC7145534, “Are the intrinsically disordered linkers involved in SSB binding to accessory proteins?” (Nucleic Acids Research, 2019).
# What was measured:
# [1] = test system: DNA Pol III (χ); assay: ITC of SSB-Ct peptides binding to the χ subunit; parameters: species or system Escherichia coli; conditions: for ΔH (enthalpy change): pH 8.0, 50 mM NaCl, 25°C, K, N, ΔH floated
# Description: (§1) The concentrations were determined thereafter.
# [2] = test system: PriA; conditions: for ΔH (enthalpy change): pH 8.0, 50 mM NaCl, 25°C, K, N, ΔH floated
# [3] = test system: RecO; conditions: 0.35 μM tetramer + 3.5 μM RecO, BTP pH 7.0, 200 mM NaCl, 25°C
# [4] = test system: E. coli RecO; assay: ITC of SSB tetramers (apo) binding to RecO; parameters: species or system Escherichia coli
# Description: as §1
# [5] = test system: E. coli RecO; assay: ITC of SSB tetramer–(dT)70 complexes binding to RecO; parameters: species or system Escherichia coli
# [6] = test system: E. coli RecO; assay: ITC of SSB-Ct peptides binding to RecO; parameters: species or system Escherichia coli
# Description: as §1
# [7] = apo, 15°C, BTP pH 7.0, 200 mM NaCl, N fixed to 4
# [8] = apo, 25°C, BTP pH 7.0, 200 mM NaCl, N fixed to 4
# [9] = apo, 37°C, BTP pH 7.0, 200 mM NaCl, N fixed to 4
# [10] = in complex with (dT)70, 25°C, BTP pH 7.0, 200 mM NaCl, N fixed to 4
# [11] = in complex with (dT)70, 37°C, BTP pH 7.0, 200 mM NaCl, N fixed to 4
# [12] = apo, 10°C, BTP pH 7.0, 200 mM NaCl, N fixed to 4
molecule,measurement,setting,value
"P31: SSB-Ct peptide, C-terminal 31 amino acids of SSB, includes two of the PXXP motifs (FSGGAQSRPQQSAPAAPSNEPPMDFDDDIPF)",ΔH (enthalpy change),[1],-10.3 ± 0.8 kcal/mol
same,ΔH (enthalpy change),[2],-8.2 ± 1.2 kcal/mol
"wtSSB: E. coli single strand DNA binding protein, homo-tetramer, wild type",sedimentation coefficient of SSB peak in presence of RecO,[3],1.7 S
same,TΔS°,[4]; [7],-1.8 ± 0.3 kcal/mol
same,ΔG°,[4]; [7],-8.0 ± 0.1 kcal/mol
same,TΔS°,[4]; [8],-1.0 ± 0.5 kcal/mol
same,ΔG°,[4]; [8],-8.4 ± 0.8 kcal/mol
same,TΔS°,[4]; [9],0.4 ± 0.8 kcal/mol
same,ΔG°,[4]; [9],-8.7 ± 0.1 kcal/mol
same,"heat capacity change, ΔCp","[4]; apo, per SSB tail, pH 7.0, 200 mM NaCl, 15-37°C, listed as SSB",0.06 ± 0.01 kcal/mol⋅deg
same,TΔS°,"[5]; in complex with (dT)70, 15°C, BTP pH 7.0, 200 mM NaCl, N fixed to 4",2.7 ± 0.2 kcal/mol
same,TΔS°,[5]; [10],-1.3 ± 0.2 kcal/mol
same,ΔG°,[5]; [10],-9.0 ± 0.1 kcal/mol
same,TΔS°,[5]; [11],3.9 ± 0.6 kcal/mol
same,ΔG°,[5]; [11],-9.2 ± 0.3 kcal/mol
SSB–(dT)70: 1:1 complex of wtSSB tetramer with (dT)70,"binding stoichiometry, floated","[5]; (dT)70 complex, 15, 25 and 37°C, pH 7.0, 200 mM NaCl",near four
"P65: SSB-Ct peptide, C-terminal 65 amino acids of SSB; acidic tip and the full IDL (peptide) peptide: GGRQGGGAPAGGNIGGGQPQGGWGQPQQPQGGNQFSGGAQSRPQQSAPAAPSNEPPMDFDDDIPF",ΔG°,[1]; Table S2 replicate 1,-7.9 ± 0.1 kcal/mol
same,ΔH,[1]; Table S2 replicate 1,-10.2 ± 0.9 kcal/mol
same,ΔG°,[1]; Table S2 replicate 2,-7.5 ± 0.1 kcal/mol
same,ΔH (enthalpy change),[1],-10.2 ± 0.9 kcal/mol
same,ΔH,"[6]; Figure S3, 15°C, pH 8.0, 50 mM, N floated",-2.58 ± 0.02 kcal/mol
same,ΔH,"[6]; Figure S3, 37°C, pH 8.0, 50 mM, N floated",-9.04 ± 0.87 kcal/mol
same,ΔH,"[6]; Figures S3/S4a, 25°C, pH 8.0, 50 mM NaCl, N floated",-5.18 ± 0.23 kcal/mol
same,TΔS°,[6]; Table S2 replicate 1,4.9 ± 0.1 kcal/mol
same,ΔH,[6]; Table S2 replicate 1,-4.9 ± 0.1 kcal/mol
same,TΔS°,[6]; Table S2 replicate 2,6.4 ± 0.2 kcal/mol
same,ΔG°,[6]; Table S2 replicate 2,-10.5 ± 0.1 kcal/mol
same,ΔH,[6]; Table S2 replicate 2,-4.1 ± 0.1 kcal/mol
same,TΔS°,[6]; Table S2 replicate 3,5.5 ± 0.1 kcal/mol
same,ΔG°,[6]; Table S2 replicate 3,-10.3 ± 0.1 kcal/mol
same,ΔH,[6]; Table S2 replicate 3,-4.8 ± 0.1 kcal/mol
same,ΔH (enthalpy change),"[6]; pH 8.0, 50 mM NaCl, 25°C, K, N, ΔH floated",-4.9 ± 0.1 kcal/mol
same,TΔS°,[2]; Table S2 replicate 1,-0.7 ± 0.7 kcal/mol
same,ΔH,[2]; Table S2 replicate 1,-8.5 ± 0.7 kcal/mol
same,TΔS°,[2]; Table S2 replicate 2,-1.2 ± 1.0 kcal/mol
same,ΔG°,[2]; Table S2 replicate 2,-7.5 ± 0.1 kcal/mol
same,ΔH,[2]; Table S2 replicate 2,-8.7 ± 1.0 kcal/mol
same,ΔH (enthalpy change),[2],-8.5 ± 0.7 kcal/mol
"SSBΔ120-166 tetramer (natural protein, E. coli, UniProt P0AGE0 1-178, looked up, E. coli SSB with residues 120-166 of the IDL deleted, acidic tip kept; All three PXXP motifs deleted; only nine residues of the IDL left; Used apo and in complex with (dT)70) MASRGVNKVILVGNLGQDPEVRYMPNGGAVANITLATSESWRDKATGEMKEQTEWHRVVLFGKLAEVASEYLRKGSQVYIEGQLRTRKWTDQSGQDRYTTEVVVNVGGTMQMLGGRQGGGPPMDFDDDIPF",sedimentation coefficient of SSB peak in presence of RecO,[3],1.6 S
same,TΔS°,[4]; [12],0.4 ± 0.1 kcal/mol
same,ΔG°,[4]; [12],-8.5 ± 0.1 kcal/mol
same,ΔH* (ΔH per tip),[4]; [12],-8.1 ± 0.1 kcal/mol
same,N (stoichiometry),"[4]; apo, 10°C, pH 7.0, 200 mM NaCl, N floated (Figure S5)",4.03 ± 0.19
same,"heat capacity change, ΔCp","[4]; apo, pH 7.0, 200 mM NaCl, from ΔH at 10°C and 25°C",~0.54 kcal/mol⋅deg
same,TΔS°,[5]; [10],3.3 ± 0.1 kcal/mol
same,ΔG°,[5]; [10],-9.3 ± 0.1 kcal/mol
same,ΔH* (ΔH per tip),[5]; [10],-6.0 ± 0.1 kcal/mol
"SSBΔ151-166 tetramer (natural protein, E. coli, UniProt P0AGE0 1-178, looked up, E. coli SSB with residues 151-166 of the IDL deleted, acidic tip kept; Two C-terminal PXXP motifs deleted; Used apo and in complex with (dT)70) MASRGVNKVILVGNLGQDPEVRYMPNGGAVANITLATSESWRDKATGEMKEQTEWHRVVLFGKLAEVASEYLRKGSQVYIEGQLRTRKWTDQSGQDRYTTEVVVNVGGTMQMLGGRQGGGAPAGGNIGGGQPQGGWGQPQQPQGGNQFSGGPPMDFDDDIPF",sedimentation coefficient of SSB peak in presence of RecO,[3],1.6 S
same,TΔS°,[4]; [8],1.9 ± 0.1 kcal/mol
same,ΔG°,[4]; [8],-8.9 ± 0.1 kcal/mol
same,TΔS°,[5]; [10],0.3 ± 0.1 kcal/mol
same,ΔG°,[5]; [10],-9.0 ± 0.1 kcal/mol
"SSBΔ130-166: SSB tetramer variant with IDL residues 130-166 deleted, retaining the acidic tip (protein) MASRGVNKVILVGNLGQDPEVRYMPNGGAVANITLATSESWRDKATGEMKEQTEWHRVVLFGKLAEVASEYLRKGSQVYIEGQLRTRKWTDQSGQDRYTTEVVVNVGGTMQMLGGRQGGGAPAGGNIGGGPPMDFDDDIPF",sedimentation coefficient of SSB peak in presence of RecO,[3],1.5 S
same,TΔS°,[4]; Table S2 replicate 1,7.1 ± 0.6 kcal/mol
same,ΔG°,[4]; Table S2 replicate 1,-8.9 ± 0.1 kcal/mol
same,ΔH,"[4]; Table S2 replicate 1, ΔH per tip",-1.8 ± 0.6 kcal/mol
same,TΔS°,[4]; Table S2 replicate 2,6.4 ± 0.1 kcal/mol
same,ΔG°,[4]; Table S2 replicate 2,-8.7 ± 0.1 kcal/mol
same,ΔG°,[4]; [8],-8.5 kcal/mol and -8.5 ± 0.1 kcal/mol
same,TΔS°,[5]; [10],4.7 ± 0.1 kcal/mol
same,ΔG°,[5]; [10],-9.2 ± 0.1 kcal/mol

# Values joined by “and” are separate entries in the source; they are usually repeats but may differ in a detail not shown here. Equal entries are not always repeated. Where two headings read alike, the source gives them in different places.
